Measurements: PMC8282835
Results are given in words; binding and its absence hold for the method and conditions named. Binding seen in cells or lysates may run through a third protein. Some entries that bind do so weakly or less than the wild type.

Sequences of proteins named here, by UniProt entry; tags and fusion partners are left off. A change or cut given only in a name is not applied to a line headed by its entry. A line that says so, or that is headed by a name, gives the form on record, which may keep a tag or linker.
UniProt P10070: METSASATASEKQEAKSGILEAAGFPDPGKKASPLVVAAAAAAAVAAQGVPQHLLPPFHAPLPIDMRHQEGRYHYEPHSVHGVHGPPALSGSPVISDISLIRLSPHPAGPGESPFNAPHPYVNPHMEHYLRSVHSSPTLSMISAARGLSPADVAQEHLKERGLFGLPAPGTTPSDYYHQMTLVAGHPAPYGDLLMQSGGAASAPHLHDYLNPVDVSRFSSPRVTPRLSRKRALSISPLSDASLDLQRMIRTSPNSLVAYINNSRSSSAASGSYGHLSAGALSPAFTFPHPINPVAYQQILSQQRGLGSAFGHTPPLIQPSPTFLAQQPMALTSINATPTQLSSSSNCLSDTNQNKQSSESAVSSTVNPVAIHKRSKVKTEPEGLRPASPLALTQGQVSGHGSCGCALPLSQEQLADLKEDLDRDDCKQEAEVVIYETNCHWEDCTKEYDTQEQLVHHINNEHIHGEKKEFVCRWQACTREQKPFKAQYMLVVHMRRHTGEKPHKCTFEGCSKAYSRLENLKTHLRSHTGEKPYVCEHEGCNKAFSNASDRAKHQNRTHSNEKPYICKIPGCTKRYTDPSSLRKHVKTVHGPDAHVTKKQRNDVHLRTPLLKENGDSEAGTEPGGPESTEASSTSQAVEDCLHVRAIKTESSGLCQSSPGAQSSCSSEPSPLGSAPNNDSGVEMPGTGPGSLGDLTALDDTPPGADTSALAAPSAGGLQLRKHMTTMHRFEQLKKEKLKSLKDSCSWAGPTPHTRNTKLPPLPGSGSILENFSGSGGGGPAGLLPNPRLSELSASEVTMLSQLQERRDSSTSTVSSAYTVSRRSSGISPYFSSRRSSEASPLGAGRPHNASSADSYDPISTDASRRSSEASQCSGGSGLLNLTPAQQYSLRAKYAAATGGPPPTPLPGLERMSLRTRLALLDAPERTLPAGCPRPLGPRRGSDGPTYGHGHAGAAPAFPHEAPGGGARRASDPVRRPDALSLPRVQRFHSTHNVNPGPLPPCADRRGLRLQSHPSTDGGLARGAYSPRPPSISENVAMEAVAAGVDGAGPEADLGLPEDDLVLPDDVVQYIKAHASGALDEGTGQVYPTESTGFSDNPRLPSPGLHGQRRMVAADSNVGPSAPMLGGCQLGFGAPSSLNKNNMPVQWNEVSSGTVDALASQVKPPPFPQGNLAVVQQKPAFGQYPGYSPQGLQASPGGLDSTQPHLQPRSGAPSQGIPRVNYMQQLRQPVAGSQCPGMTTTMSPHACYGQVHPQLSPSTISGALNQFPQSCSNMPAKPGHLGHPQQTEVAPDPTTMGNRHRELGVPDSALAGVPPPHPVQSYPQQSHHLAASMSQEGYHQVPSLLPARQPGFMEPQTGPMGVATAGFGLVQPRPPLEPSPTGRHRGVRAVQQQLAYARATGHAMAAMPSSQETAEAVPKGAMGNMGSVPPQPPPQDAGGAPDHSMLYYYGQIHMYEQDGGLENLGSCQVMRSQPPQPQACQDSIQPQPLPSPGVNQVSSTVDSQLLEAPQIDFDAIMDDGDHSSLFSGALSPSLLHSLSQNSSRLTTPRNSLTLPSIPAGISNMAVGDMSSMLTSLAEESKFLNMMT
UniProt P45983: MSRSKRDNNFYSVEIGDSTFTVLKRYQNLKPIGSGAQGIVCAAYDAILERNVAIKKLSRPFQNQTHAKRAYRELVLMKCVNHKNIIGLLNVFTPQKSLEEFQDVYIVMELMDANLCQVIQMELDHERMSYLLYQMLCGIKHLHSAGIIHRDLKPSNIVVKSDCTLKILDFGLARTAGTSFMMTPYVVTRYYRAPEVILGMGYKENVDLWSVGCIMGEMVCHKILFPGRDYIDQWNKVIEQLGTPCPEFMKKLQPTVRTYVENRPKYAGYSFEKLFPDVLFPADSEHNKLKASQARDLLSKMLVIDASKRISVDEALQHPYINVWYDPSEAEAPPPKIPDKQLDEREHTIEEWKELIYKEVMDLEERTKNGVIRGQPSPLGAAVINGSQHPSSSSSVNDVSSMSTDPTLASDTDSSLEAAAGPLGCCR
Flag-tagged JNK1 (P45983-2, form named): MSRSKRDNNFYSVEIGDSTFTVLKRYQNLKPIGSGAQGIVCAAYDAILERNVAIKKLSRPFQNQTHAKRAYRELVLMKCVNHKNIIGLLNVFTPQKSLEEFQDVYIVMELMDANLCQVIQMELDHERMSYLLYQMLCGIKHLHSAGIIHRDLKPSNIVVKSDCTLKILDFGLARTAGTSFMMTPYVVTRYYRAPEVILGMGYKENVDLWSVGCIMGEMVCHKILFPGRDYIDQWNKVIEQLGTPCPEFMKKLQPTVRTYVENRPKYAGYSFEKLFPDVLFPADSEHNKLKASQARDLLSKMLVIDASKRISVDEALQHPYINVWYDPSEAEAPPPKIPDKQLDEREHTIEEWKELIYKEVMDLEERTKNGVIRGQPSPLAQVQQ

Legend:
Myc-tagged Gli2 = Myc-tagged Gli2 (UniProt P10070); test: co-IP; 293T cells expressing Flag-tagged JNK1 and Myc-tagged Gli2, treated with PGE2, SP600125 and MG132 as indicated for 1 h; lysis buffer 50 mM Tris pH 8.0, 150 mM NaCl, 10% glycerol, 1 mM EDTA, 50 mM NaF, 0.1% NP-40; antibody overnight at 4 °C, Protein A/G Plus-Agarose; western blot
[1] = molecular target: endogenous Gli2 (human (endogenous in 293T)) (UniProt P10070); test: co-IP; endogenous proteins in 293T cells treated with PGE2, SP600125 and MG132 as indicated for 1 h; lysis buffer 50 mM Tris pH 8.0, 150 mM NaCl, 10% glycerol, 1 mM EDTA, 50 mM NaF, 0.1% NP-40; antibody overnight at 4 °C, Protein A/G Plus-Agarose; western blot

| binding (Myc-tagged Gli2) | binding [1] | Substance |
| --- | --- | --- |
| binds | – | Flag-tagged JNK1 (from UniProt P45983-2 1-384) (enzyme) |
| – | binds | endogenous JNK1 (from UniProt P45983 1-427) (enzyme) |
